In PubChem BioAssay AID540303 (National Center for Advancing Translational Sciences (NCATS), 2011):
The campaign covered roughly 330,000 compounds. About 1,000 (0.3%) were called active. Inconclusive means that the source gave no clear call. Such entries were picked first, then a sample of the others. Calls come from the whole dose curve; as a rule, active = well fitted inhibition curve with a large enough effect; inconclusive = small, poorly fitted or top-dose-only effect; inactive = no such curve, though single readings can be large or run the other way; tested in mouse RAW 264.7 cells. A potency beside an inconclusive call is a rough fit, not a confirmed value.

assay: qHTS for Inhibitors of Cell Surface uPA Generation; settings: cell surface uPA generation assay; series mostly up to 38.3 µM; note: nearly all actives have a fitted effect of over 55% in size
How it was run: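 RAW 264.7, 4000 cells/well, o/n 37 C; cpd 1:5 dilution, up to 38.3 uM final; 24 h 37 C/5% CO2 with reagent; ATP-Lite lum. High ATP = LF entry blocked.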
Potency is the fitted concentration of half-maximal effect.

SMILES	Potency
CCN(CC)Cc1cc(Nc2ccnc3cc(Cl)ccc23)ccc1O	inconclusive: 5.01 µM [inhibitor, partial curve]
CC(=O)C1=C(O)C(=O)N(c2ccc(Br)cn2)C1c1ccc(Br)cc1 (stereo not given)	inconclusive: 0.891 µM [inhibitor, full curve, poor fit]
O=S1(=O)c2ccc(Br)cc2OC(COCc2ccccc2)CN1Cc1ccccc1 (stereo not given)	inconclusive: 1.41 µM [inhibitor, full curve, poor fit]
Cc1cc(C)n(CCC(=O)N/N=C/c2ccc(Br)c([N+](=O)[O-])c2)n1	inactive
CC(C)(C)c1cc(/C=N/NC(=O)C[n+]2ccccc2)cc(C(C)(C)C)c1O	inactive
Cn1c(=O)c2c(nc(CN3CCN(c4ccccc4F)CC3)n2CCCc2ccccc2)n(C)c1=O	inactive
Cc1ccc(C(=O)C(C)OC(=O)CCN2C(=O)C3C4C=CC(C5CC45)C3C2=O)cc1 (stereo not given)	inconclusive: 12.6 µM [inhibitor, single point]
COc1ccc2[nH]c(CN3CCN(CC=C(C)C)C(CCO)C3)c(C)c2c1 (stereo not given)	inactive
COc1ccc(-c2c(-c3cc(OC)cc(OC)c3)n(C)c3ccc(-c4cc(F)cc(OC)c4)cc23)cc1	inactive
COc1ccc([C@H]2CC(=O)C=C(c3cccc(F)c3OC)C2)cc1	inconclusive: 14.1 µM [inhibitor, single point]
CC(C)(C)OC(=O)N1CCC(C(=O)Nc2cccc(C(=O)NCCCc3ccccc3)c2)CC1	inconclusive: 11.2 µM [inhibitor, partial curve, poor fit]
CCOC(=O)Cc1cc(=O)n2[nH]c(-c3ccc(C)cc3)cc2n1	inactive
O=C(CCN1C(=O)S/C(=C\C=C\c2ccccc2)C1=O)Nc1ccc(O)cc1	inactive
CCC(=O)OCC(=O)[C@@]1(OC(=O)CC)[C@@H](C)C[C@H]2[C@@H]3CCC4=CC(=O)C=C[C@]4(C)[C@@]3(Cl)[C@@H](O)C[C@@]21C	inconclusive: 2.82 µM [inhibitor, partial curve, poor fit]
O=c1c2ccccc2nc2n1CCc1c-2[nH]c2ccccc12	inconclusive: 4.47 µM [inhibitor, partial curve, poor fit]
COc1ccc(OC)c(C2CC(=O)c3c([nH]c(C(=O)OCC4CCCO4)c3C)C2)c1 (stereo not given)	inconclusive: 12.6 µM [inhibitor, partial curve, poor fit]
O=C(/C=C/C=C/c1ccc2c(c1)OCO2)N1CCCCC1	inconclusive: 10 µM [inhibitor, single point]
CCc1cc2c(NC3CCCC3)ncnc2s1	inconclusive: 5.62 µM [inhibitor, single point]
Cc1ccc(C(=O)N/C(=C\c2ccco2)C(=O)N2CCOCC2)cc1C	inactive
O=S(=O)(NCc1ccccn1)c1cc(C(F)(F)F)ccc1Cl	inconclusive: 5.62 µM [inhibitor, single point]
CCSc1nc(-c2ccccc2)nc(C(Cl)Cl)n1	inconclusive: 3.16 µM [inhibitor, full curve, poor fit]
Cc1cc(NCc2ccccc2)n2ncnc2n1	inconclusive: 1.26 µM [inhibitor, full curve, poor fit]

A few values from the entries so far:
For Potency, COc1ccc(-c2c(-c3cc(OC)cc(OC)c3)n(C)c3ccc(-c4cc(F)cc(OC)c4)cc23)cc1 has inactive
For Potency, Cc1ccc(C(=O)C(C)OC(=O)CCN2C(=O)C3C4C=CC(C5CC45)C3C2=O)cc1 (stereo not given) has inconclusive: 12.6 µM [inhibitor, single point]
For Potency, Cc1cc(NCc2ccccc2)n2ncnc2n1 has inconclusive: 1.26 µM [inhibitor, full curve, poor fit]
For Potency, O=S1(=O)c2ccc(Br)cc2OC(COCc2ccccc2)CN1Cc1ccccc1 (stereo not given) has inconclusive: 1.41 µM [inhibitor, full curve, poor fit]
For Potency, O=C(CCN1C(=O)S/C(=C\C=C\c2ccccc2)C1=O)Nc1ccc(O)cc1 has inactive

(further entries)

SMILES	Potency
CCc1nnc(NS(=O)(=O)c2ccc(N=Cc3c(C)[nH]n(-c4ccc(C)cc4)c3=O)cc2)s1	inconclusive: 5.62 µM [inhibitor, partial curve, poor fit]
O=C(c1ccco1)N1CCN(C(=O)c2cn(-c3ccccc3)nc2-c2ccccc2)CC1	inconclusive: 5.01 µM [inhibitor, partial curve, poor fit]
Cc1ccc(NCN2C(=O)C(=O)c3ccccc32)nc1	inconclusive: 12.6 µM [inhibitor, single point]
COc1ccc2[nH]c3c(c2c1)CCN1C(=O)C(CC(=O)NCC24CC5CC(CC(C5)C2)C4)C[C@H](C(=O)N2CCCCC2)[C@@]31C (stereo not given in full)	inconclusive: 28.2 µM [inhibitor, single point]
Cc1cccc(/C=N\Nc2cn[nH]c(=O)c2Cl)c1	inconclusive: 12.6 µM [inhibitor, single point]
Cc1ccc(C(=O)O/N=C(\N)Cc2cccs2)c(Cl)c1	inconclusive: 12.6 µM [inhibitor, single point]
O=C(Nc1ccc(Br)cc1F)c1cccnc1	inconclusive: 12.6 µM [inhibitor, single point]
Nc1nonc1-n1nnc(C(=O)N/N=C/c2ccoc2)c1CSc1ccccc1	inactive
CCC(Oc1ccc(F)cc1)C(=O)N1CCCCCCC1 (stereo not given)	inconclusive: 11.2 µM [inhibitor, partial curve]
CC1CCN(S(=O)(=O)c2ccc3c(c2)N(CC(=O)NCCCN2CC(C)CC(C)C2)C(=O)CS3)CC1 (stereo not given)	inconclusive: 3.98 µM [inhibitor, partial curve, poor fit]
C=CC[C@H](CC(=O)N[C@H](CO)Cc1ccccc1)C(=O)N[C@@H](COC(=O)[C@H](CC=C)CC(=O)OC(C)(C)C)Cc1c[nH]c2ccccc12	inconclusive: 10 µM [inhibitor, single point]
Cc1ccc2c(c1)-c1c(cnn1CC(=O)N(Cc1ccco1)C1CCCCC1)CO2	inactive
O=C(N/N=C/c1c[nH]c2ccccc12)c1ccn[nH]1	inconclusive: 14.1 µM [inhibitor, partial curve, poor fit]
COc1ccc(C(=O)OCC(=O)N(C)C2CCS(=O)(=O)C2)cc1S(=O)(=O)N(C)Cc1ccccc1 (stereo not given)	inactive
O=[N+]([O-])c1cc(/C=N\O)ccc1Oc1ccc(F)cc1	inconclusive: 2 µM [inhibitor, partial curve, poor fit]
O=C(Nc1ccc(Cl)cc1)c1cccc(OC(=S)N2CCOCC2)c1	inconclusive: 10 µM [inhibitor, single point]
C=CCn1c(C)cc(C(=O)COC(=O)C2CC(=O)N(Cc3ccccc3)C2)c1C (stereo not given)	inactive
C[C@H](CO)N1C[C@H](C)[C@@H](CN(C)Cc2ccc(-c3ccccc3)cc2)Oc2c(NC(=O)c3ccncc3)cccc2C1=O	inconclusive: 12.6 µM [inhibitor, single point]
O=C(NCCSc1ccccc1)c1ccccc1Cl	inactive
O=C(NCC(c1ccco1)N1CCN(c2ccc(F)cc2)CC1)c1cccs1 (stereo not given)	inactive
Cc1ccc(O)c(NC(=O)CN(C)S(=O)(=O)c2ccc(Cl)cc2)c1	inconclusive: 1.12 µM [inhibitor, partial curve, poor fit]
CCc1c(C)sc(NC(=O)c2cc(C)no2)c1C#N	inconclusive: 5.01 µM [inhibitor, partial curve, poor fit]

SMILES	Potency
Cc1cc2oc3ccc(NCCC4CCCN4C)cc3c(=O)c2cc1C (stereo not given)	inconclusive: 8.91 µM [inhibitor, partial curve, poor fit]
O=C(C[C@H]1C[C@H](C(=O)N2CCOCC2)[C@@]2(CCC3CCCC3)c3[nH]c4cc(-c5ccco5)ccc4c3CCN2C1=O)NCCc1ccccn1	inconclusive: 28.2 µM [inhibitor, single point]
C=CCn1c(SCC(=O)NNC(=S)Nc2ccccc2)nnc1-c1ccccc1	inactive
CCN(CC)S(=O)(=O)c1ccc(NN=C2CCN(C(C)C)CC2)c([N+](=O)[O-])c1	inconclusive: 4.47 µM [inhibitor, partial curve]
O=C(CSC1=NS(=O)(=O)c2ccccc21)Nc1ccccc1	inconclusive: 11.2 µM [inhibitor, single point]
CCOc1ccc(NC(=O)c2ccc(NCC(=O)N3CCCCCC3)cc2)cc1	inconclusive: 11.2 µM [inhibitor, partial curve, poor fit]
COc1ccc(-c2cc(=O)c3c(O)c(OC)c(O)cc3o2)cc1	active: 10 µM
O=C(Cn1nnc2ccccc21)c1ccc([N+](=O)[O-])cc1	inactive
Cc1ccc(SCC(=O)OC(C)C(=O)NC2(C#N)CCCCC2)cc1 (stereo not given)	inconclusive: 31.6 µM [inhibitor, partial curve, poor fit]
CCOC(=O)c1c(CN2CCCCC2)n(C)c2cc(Br)c(O)c(CN(C)C)c12	inconclusive: 7.94 µM [inhibitor, partial curve, poor fit]
CC(C)C(=O)NNC(=O)c1cc2sccc2s1	inconclusive: 6.31 µM [inhibitor, single point]
CCOC(=O)C(C)Sc1nnc(NC(=O)c2ccc3c(c2)OCO3)s1 (stereo not given)	inactive
CNC(=O)CSc1nc2cccnc2n1C1CCCCC1	inconclusive: 3.98 µM [inhibitor, partial curve]
CCc1ccc(N2C(=O)C3C4C=CC(CC4)C3C2=O)cc1 (stereo not given)	inconclusive: 8.91 µM [inhibitor, partial curve]
COc1ccccc1C(=O)Nc1sc(C(=O)N2CCCC2)c(C)c1C#N	inactive
CC(=O)NC(c1cc(Cl)c2cccnc2c1O)C1CC1 (stereo not given)	active: 3.98 µM
C=CCc1cccc(/C=N/NC(=O)c2ccccc2Br)c1O	inconclusive: 12.6 µM [inhibitor, partial curve, poor fit]
CCOC(=O)C(=O)N1CCN(c2cc3c(cc2[N+](=O)[O-])n(C)c(=O)n3C)CC1	inactive
Cc1ccc(S(=O)(=O)Nc2ncnc3sccc23)cc1C	inconclusive: 3.55 µM [inhibitor, partial curve, poor fit]
O=CC1=C(N2CCOCC2)/C(=C/c2ccc(Cl)cc2)CC1	inactive
NC(=N\N=CCc1ccccc1)/C(N)=N/N=CCc1ccccc1	inactive
